A word on the AC50: it is the concentration giving half of the maximal activity seen.

The list shows a part of the results. These are further read-outs of the screen, such as a control signal, another cell line or another target. No call is given for them. Most of these compounds were active or inconclusive in the main read-out, so they are no random draw. The note in brackets gives the kind of curve behind each potency; many fits are weak.

This test is described as follows: qHTS Assay to Find Inhibitors of Chronic Active B-Cell Receptor Signaling. To be noted: ABC-DLBCL IkBa-CBG/CBR reporter, luminescence ratio (green luciferase fused to IkBa over red control in TMD8 lymphoma cells), 4 h. The method in brief:
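Doxycycline induced both beetle luciferases in TMD8 lymphoma cells; IKK-driven degradation limits the IkappaBalpha-fused green signal, while red luminescence normalises for cell number and nonspecific effects. Compounds tested up to 46 uM, 4 hrs.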
(In general: Quantitative high-throughput screening tests each substance at several concentrations.)

Where [1] appears, read: measured here: CBR red luminescence, cell number.
[2] abbreviates: measured here: IkBa-CBG green luminescence.

On to `Cc1ccc(NC(=S)N=Nc2c(O)n(C)c3ccc(S(=O)(=O)N4CCOCC4)cc23)cc1`, for which, under setting [1], the AC50 was 29.1 µM [rising, single point].
Same read-out and setting: for `NC(=O)c1csc(-c2ccncc2)n1` the value was 6.51 µM [falling, partial curve].
In the case of `CCc1ccc(OCCCC(=O)NCc2ccco2)cc1`, the AC50 under setting [1] is 35.5 µM [rising, partial curve, poor fit].
`COc1cc2c(cc1NC(=O)CSc1ccccn1)oc1ccccc12`: under setting [1], the AC50 is 0.891 µM [falling, full curve].
On the same count and under the same terms, to `Cc1cccc(N=C2NC(=O)/C(=C/c3cccnc3)S2)c1` belongs 12.6 µM [falling, single point].
On the same count and under the same terms, for `CN(CC(CC(=O)Nc1nncs1)c1ccccc1)S(=O)(=O)c1ccc(Br)cc1` (stereo unspecified) the value was 17.8 µM [falling, partial curve, poor fit].
Still for that read-out and setting: for `CCCCN(C)CCCNC(=O)C1CCC(CNS(=O)(=O)c2c(C)cc(C)cc2C)CC1` (stereo unspecified) the value was 6.31 µM [falling, single point]; for `O=C(Nc1ccc(F)cc1F)c1ccc(S(=O)(=O)N2CCCCC2)cc1`, 12.6 µM [falling, single point].
With `O=C(N/N=C/c1ccncc1)c1ccc2c(c1)OCO2`, the AC50 under setting [1] was 5.01 µM [falling, partial curve].
Still for that read-out and setting: to `COC(=O)C1C(c2ccc(Br)cc2)Nc2nnc(C(F)(F)F)n2C1(C)O` (stereo unspecified) belongs 20 µM [falling, single point].
The same measure, in the same setting: for `COc1ccc(C2=NN(C(=O)c3ccccc3)C(c3ccc(OC)c(OC)c3)C2)c(OC(C)=O)c1` (stereo unspecified) the value was 0.562 µM [rising, full curve, poor fit].
For the compound `COc1ccc2c3c(cccc13)OC2=O`, the AC50 under setting [1] is 35.5 µM [rising, single point].
The same measure, in the same setting: for `Cc1ccc(C)c(NC(CC(=O)c2ccccc2)C(=O)OCC(=O)c2cccs2)c1` (stereo unspecified) the value was 6.51 µM [rising, partial curve, poor fit]; for `O=C(O)C(c1ccccc1)N1C(=O)/C(=C\c2ccc(-c3cccc(Cl)c3)o2)SC1=S` (stereo unspecified), 22.4 µM [falling, partial curve, poor fit].
Turning to `CCOc1cc(CNC2CCCC2)cc(Cl)c1OCc1ccc(F)cc1`, the concentration at half-maximal activity (AC50) by setting is: under setting [1], 9.2 µM [falling, partial curve, poor fit]; under setting [2], 13 µM [rising, partial curve, poor fit].
Consider `O=C(O)CCCC(=O)Nc1ccccc1C(=O)O`, for which the AC50 under setting [1] is 35.5 µM [falling, single point].
On the same count and under the same terms, for `CCc1cc2c(NCc3ccccc3)nc(C)nc2s1` the value was 14.1 µM [falling, partial curve].
For the compound `COC(=O)c1ccc(/C=N/NS(=O)(=O)c2cc(C)ccc2C)cc1`, under setting [2], the concentration at half-maximal activity (AC50) was 3.26 µM [falling, full curve].
As to `COc1ccccc1/C=C/C=N/N1CCN(Cc2ccc(Cl)cc2)CC1`, under setting [1], the AC50 is 22.4 µM [falling, single point].
Still for that read-out and setting: for `CC1CCN(C(=O)CN(c2ccc(Cl)c(C(F)(F)F)c2)S(C)(=O)=O)CC1` the value was 13 µM [falling, partial curve, poor fit]; for `CC(C)(C)c1ccc(OC(=O)N2CCOCC2)cc1`, 14.1 µM [rising, partial curve, poor fit]; for `O=C(COC(=O)Cc1cccs1)Nc1ccccc1F`, 0.184 µM [falling, full curve, poor fit].
For the compound `NS(=O)(=O)c1ccc(N=Nc2c[nH]c(=O)c(O)c2)cc1`, the AC50 by setting is: under setting [1], 10 µM [rising, partial curve, poor fit]; under setting [2], 17.8 µM [rising, partial curve, poor fit].
For `C/C(=N\NC(=O)c1csc2ccccc12)c1ccc(O)cc1`, the half-maximal activity concentration (AC50) under setting [1] is 2.06 µM [falling, full curve, poor fit].
Turning to `Cc1nnc(SCC(=O)c2c[nH]c3ccccc23)n1C1CC1`, under setting [1], the AC50 is 32.6 µM [falling, partial curve, poor fit].
On the same count and under the same terms, for `CC(c1ccccc1)C1C(C#N)=C(N)OC2=C1C(=O)CC(C)(C)C2` (stereo unspecified) the value was 35.5 µM [falling, single point]; for `Cc1occc1-c1n[nH]c(=S)n1CC(C)C`, 3.66 µM [rising, partial curve, poor fit].
As to `CCOC(=O)CN1CC23C=CC(O2)C(C(=O)Nc2ccc(F)c(C)c2)C3C1=O` (stereo unspecified), the AC50 under setting [1] was 14.6 µM [rising, partial curve, poor fit].
Same read-out and setting: for `O=C1c2ccccc2C(O)N1Cc1cccs1` (stereo unspecified) the value was 6.31 µM [rising, single point]; for `Cc1cccc(NC(=S)NNC(=O)c2csc(C)c2)c1`, 20.6 µM [falling, partial curve].
As to `COC(=O)CCC(=O)Nc1cc(Cl)cc(Cl)c1`, the AC50 under setting [2] was 5.01 µM [rising, full curve].
On to `O=C(c1cnc(Cl)c(Cl)c1)N1CCN(S(=O)(=O)c2ccc3ccccc3c2)CC1`, for which, under setting [1], the concentration at half-maximal activity (AC50) is 13 µM [falling, partial curve].
For the compound `CCNC(=S)N/N=C(\C)c1ccc2ccccc2c1`, the AC50 reads like this: under setting [1], 8.91 µM [falling, partial curve, poor fit]; under setting [2], 25.1 µM [falling, single point].
Consider `Cc1cc(C)c2c(N)c(C(=O)c3cccc(Cl)c3)sc2n1`, for which the AC50 under setting [1] was 5.8 µM [rising, partial curve, poor fit].
As for `CCCn1c2ccc(/C(C)=N\O)cc2c2cc(/C(C)=N/O)ccc21`, the AC50 under setting [1] was 7.94 µM [falling, partial curve, poor fit].
The same measure, in the same setting: for `CC1(OC(=O)CCc2ccccc2)C(=O)C=C2C=C(c3ccc(C#N)cc3)N(Cc3ccco3)C=C2C1=O` (stereo unspecified) the value was 0.112 µM [rising, full curve, poor fit]; for `Cc1ccnc(NC(=O)C2COc3ccccc3O2)c1` (stereo unspecified), 11.6 µM [falling, partial curve, poor fit]; for `CC(C)NCC(O)(c1ccc(Cl)cc1)c1ccc(Cl)cc1`, 35.5 µM [falling, single point].
Same read-out and setting: to `N#CCSc1nccc(-c2cc(Cl)sc2Cl)n1` belongs 3.26 µM [rising, full curve, poor fit]; to `COc1cc(NC(=O)COc2cccc(C)c2C)ccc1NC(=O)c1ccco1`, 6.31 µM [rising, partial curve, poor fit]; to `CCOc1ccc(N(CC(=O)NC(C)C)C(=O)CCC(=O)Nc2ccccn2)cc1`, 11.2 µM [falling, partial curve].
The same measure, in the same setting: to `O=C(NCCCN1CCCC1)C1CCN(C(=O)c2cc3sccc3n2Cc2ccc(F)cc2)CC1` belongs 23.1 µM [rising, single point]; to `c1ccc2c(c1)nc(N1CCOCC1)c1c3ccccc3[nH]c21`, 35.5 µM [falling, partial curve, poor fit].
On to `CC[C@H](C)[C@H](NC(N)=O)C(=O)Nc1ccccc1F`, for which the AC50 under setting [1] is 17.8 µM [falling, single point].
Regarding `CCC1(C)Cc2c(sc3nnn(CC(=O)Nc4ccc(Cl)cc4)c(=O)c23)CO1` (stereo unspecified), the AC50 under setting [1] was 7.08 µM [falling, full curve].
On the same count and under the same terms, for `CCCCN(C(=O)CSc1nnc2ccccn12)c1c(N)n(Cc2ccccc2)c(=O)[nH]c1=O` the value was 4.11 µM [rising, partial curve, poor fit]; for `Cc1cc(NN)nc(NS(=O)(=O)c2ccc(Cl)cc2)n1`, 17.8 µM [falling, single point]; for `Cc1cc(C)n(NC(=S)NC2CCCC2)c(=O)c1C#N`, 0.0891 µM [rising, full curve, poor fit].
Turning to `Cc1ccccc1Nc1nc(-c2sc(NC(=O)c3ccccc3)nc2C)cs1`, the AC50 under setting [1] was 11.2 µM [falling, partial curve, poor fit].
Same read-out and setting: to `COc1ccc(CNc2cc(C)ccc2C)c(OC)c1OC` belongs 29.1 µM [rising, single point]; to `O=C(NNC(=O)c1ccccc1[N+](=O)[O-])Nc1ccccc1C(F)(F)F`, 0.562 µM [falling, full curve].
On the same count and under the same terms, for `Cc1cc(=O)[nH]c2nnc(SCc3c(F)cccc3Cl)n12` the value was 1.58 µM [rising, partial curve, poor fit]; for `COc1cc(/C=N\NC(=O)c2ccc(C)nc2)ccc1OC(=O)c1ccc2c(c1)OCO2`, 6.31 µM [falling, single point].
On the same count and under the same terms, for `CC1CCCCC1NC(=O)C1CCN(S(=O)(=O)c2cccc3nsnc23)CC1` (stereo unspecified) the value was 4.61 µM [rising, partial curve, poor fit].
As for `CC(O)CNCCCOc1cccc(Oc2ccccc2)c1` (stereo unspecified), the AC50 under setting [1] was 11.2 µM [falling, single point].
Same read-out and setting: for `Cc1occc1C(=O)N/N=C/c1cccc2ccccc12` the value was 15.8 µM [falling, single point]; for `CCOc1ccc(/C=C2/C(=O)N(c3ccc(OC)cc3)C(=S)N2CC(=O)OC)cc1OCC`, 18.4 µM [rising, partial curve, poor fit]; for `CC(=O)Nc1cccc(C(=O)OC(C)C(=O)Nc2ccc(S(=O)(=O)N3CCCC3)cc2)c1` (stereo unspecified), 23.1 µM [rising, partial curve, poor fit].
On the same count and under the same terms, to `C=CCNC(=O)c1onc(CSc2cccc(Cl)c2)c1C(=O)O` belongs 22.4 µM [falling, partial curve].
On the same count and under the same terms, to `CCOC(=O)/C=C/[C@H]1CCc2cccc(C)c2O1` belongs 29.1 µM [rising, single point]; to `Cc1sc(NC(=O)c2cccc(N3C(=O)CCC3=O)c2)nc1-c1ccccc1`, 25.9 µM [falling, single point]; to `Cc1ccccc1NS(=O)(=O)c1ccc(C(=O)NNC(=O)c2ccccc2O)cc1`, 23.1 µM [falling, single point].
Consider `COc1ccc(S(=O)(=O)N2CCN(Cc3ccc4c(c3)OCO4)CC2)cc1C`, for which, under setting [1], the AC50 is 1 µM [falling, full curve, poor fit].

Values taken from PubChem BioAssay AID493014 (National Center for Advancing Translational Sciences (NCATS), 2011).
